Experimental data as given in publication PMC12676955.
Results are given in words; binding and its absence hold for the method and conditions named. In cells and extracts the contact can be indirect. Some results given as binding are weak or reduced against the parent protein; the word gives no strength.

The chains behind the UniProt entries cited, without tags or fusion partners.
UniProt Q01094: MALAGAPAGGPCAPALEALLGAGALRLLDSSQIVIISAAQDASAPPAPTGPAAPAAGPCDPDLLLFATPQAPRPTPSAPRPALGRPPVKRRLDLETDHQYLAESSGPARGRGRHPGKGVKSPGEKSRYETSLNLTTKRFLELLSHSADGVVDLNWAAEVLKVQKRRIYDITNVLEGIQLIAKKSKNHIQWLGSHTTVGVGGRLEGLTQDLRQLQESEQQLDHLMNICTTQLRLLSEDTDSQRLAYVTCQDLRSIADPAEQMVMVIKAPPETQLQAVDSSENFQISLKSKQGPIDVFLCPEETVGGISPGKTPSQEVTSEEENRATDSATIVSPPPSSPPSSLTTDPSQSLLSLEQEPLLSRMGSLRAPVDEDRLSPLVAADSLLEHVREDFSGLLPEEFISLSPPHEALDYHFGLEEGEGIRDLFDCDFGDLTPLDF
UniProt Q00987: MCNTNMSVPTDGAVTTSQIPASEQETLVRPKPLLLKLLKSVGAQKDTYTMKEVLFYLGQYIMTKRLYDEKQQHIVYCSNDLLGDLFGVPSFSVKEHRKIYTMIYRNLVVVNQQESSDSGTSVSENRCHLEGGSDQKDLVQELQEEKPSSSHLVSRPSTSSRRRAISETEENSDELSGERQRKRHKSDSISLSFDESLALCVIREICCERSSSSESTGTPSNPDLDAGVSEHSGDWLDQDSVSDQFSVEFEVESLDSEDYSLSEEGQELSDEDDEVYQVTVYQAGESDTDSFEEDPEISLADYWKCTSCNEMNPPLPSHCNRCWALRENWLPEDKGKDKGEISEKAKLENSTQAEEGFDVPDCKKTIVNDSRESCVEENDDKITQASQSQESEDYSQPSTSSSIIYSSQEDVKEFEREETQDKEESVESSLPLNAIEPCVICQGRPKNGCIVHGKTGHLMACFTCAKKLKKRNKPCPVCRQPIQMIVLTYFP

Molecular target: E2F1 (human (endogenous in PC9)) (UniProt Q01094)
Assay: co-IP; PC9 cell lysate in RIPA buffer with protease inhibitors; IP with E2F1-specific, MDM2-specific or nonspecific IgG antibody at 4 °C for 4 h or overnight, protein A/G agarose beads, four washes with PBS containing 0.1% Triton X-100; blots probed for E2F1 and MDM2

binding: binds
Substance: MDM2 (from UniProt Q00987 1-491)
